# The list shows a part of the results. Shown are side measurements of this screen, not its main read-out; they come without a call. The list favours compounds with an active or inconclusive main result. Potencies come from curve fits of mixed quality, noted in brackets.
# Assay: IkB Signaling
# Settings: ABC-DLBCL IkBa-CBG/CBR dual luciferase ratio (green luciferase fused to IkBa over red control in OCI-Ly3 lymphoma cells), 4 h
# Outline: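 In this assay, an IκBα–CBG68 fusion accumulates when IKK-driven degradation is blocked; native CBR normalizes for cell number. OCI-Ly3 cells were treated 4 h with compound and doxycycline, then green and red light read after Chroma-Glo addition.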
# [1] = measured here: control luc red channel unless noted
smiles,measurement,setting,value
O=C(Cn1nc(N2CCN(c3ccccc3)CC2)ccc1=O)Nc1ccc(F)cc1F,AC50,[1],"12.6 µM [falling, partial curve]"
COc1ccc(CNC(=O)C2CCCN(C(=O)N3CCOc4ccccc43)C2)cc1 (stereo unspecified),AC50,[1],"3.98 µM [rising, partial curve]"
O=C(CCCn1c(=O)c2ccccc2n(CC(=O)Nc2cccc(C(F)(F)F)c2)c1=O)NCc1ccc2c(c1)OCO2,AC50,[1],"10 µM [falling, partial curve]"
Cn1nnc2c(N3CCN(c4ccccc4)CC3)ncnc21,AC50,[1],"5.01 µM [rising, partial curve]"
COC(=O)c1ccc(CSc2ncnc3ccccc23)o1,AC50,[1],"31.6 µM [falling, single point]"
CCOc1ccc(N(CC)S(=O)(=O)N2CCCC(C(=O)Nc3cc(Cl)ccc3C)C2)cc1 (stereo unspecified),AC50,[1],"10 µM [falling, partial curve]"
Cc1ccc(Cl)cc1N1CCN(C(=O)C2CCN(S(=O)(=O)c3cccc4nonc34)CC2)CC1,AC50,[1],"2.51 µM [falling, partial curve, poor fit]"
Cc1ccccc1OC(=O)CSc1nnc(-c2ccc3c(c2)OCO3)o1,AC50,[1],"0.251 µM [rising, partial curve, poor fit]"
Cc1ccc(C(=O)Nc2ccc(S(=O)(=O)O)c3cc(S(=O)(=O)O)cc(S(=O)(=O)O)c23)cc1NC(=O)c1cccc(NC(=O)Nc2cccc(C(=O)Nc3cc(C(=O)Nc4ccc(S(=O)(=O)O)c5cc(S(=O)(=O)O)cc(S(=O)(=O)O)c45)ccc3C)c2)c1,AC50,[1],"3.98 µM [rising, full curve, poor fit]"
CN(Cc1ccc(F)cc1)S(=O)(=O)c1nnc(NC(=O)c2ccccc2Br)s1,AC50,[1],"39.8 µM [falling, single point]"
Cc1ccc(-n2nc3c(=O)n(CCCC(=O)NCc4ccccc4C)nc(C)c3c2C)cc1,AC50,[1],"10 µM [falling, partial curve]"
CC(C)C(=O)N1CCC(CN=Cc2c(O)n(C3CCCCC3)c(=O)n(C3CCCCC3)c2=O)CC1,AC50,[1],"12.6 µM [falling, partial curve]"
CCOc1cccc(C2c3[nH]c4ccccc4c3CCN2C(=O)c2ccccc2F)c1 (stereo unspecified),AC50,[1],"25.1 µM [falling, partial curve]"
CCC(Sc1nnc(C)n2c1cc1sccc12)C(=O)Nc1ccccc1F (stereo unspecified),AC50,[1],"25.1 µM [falling, partial curve]"
CCOC(=O)c1c(SCC(=O)Nc2nc3ccccc3s2)nc(=O)[nH]c1C,AC50,measured here: IkB-luc green channel,"0.2 µM [rising, full curve]"
same,AC50,measured here: control luc red channel,"0.398 µM [falling, full curve]"

# Looked up one by one from the entries so far, 2 records:
smiles,measurement,setting,value
COc1ccc(CNC(=O)C2CCCN(C(=O)N3CCOc4ccccc43)C2)cc1 (stereo unspecified),AC50,[1],"3.98 µM [rising, partial curve]"
CC(C)C(=O)N1CCC(CN=Cc2c(O)n(C3CCCCC3)c(=O)n(C3CCCCC3)c2=O)CC1,AC50,[1],"12.6 µM [falling, partial curve]"
